Laboratory results reported in PubChem BioAssay AID256 (DTP/NCI, 2004).
The list is a part of this screen's results and no random one: it gathers tests that were run many times, whatever their T/C, doses with no T/C, and many T/C values between a quarter and a half above the control. Other doses and runs of a compound stand elsewhere. T/C: endpoint of the treated group in % of that of the vehicle group. Some doses have a count of surviving animals in place of a T/C: the source files T/C as zero there, which appears to mark a toxic dose or a test without result, not a measured value. Some doses without a T/C left all or most animals alive at the check, yet need not have been tolerated: the source hardly ever lists a survival T/C far under the control, and the zero likely stands for such cases as well. Counts of survivors are from the toxicity check (mostly the fifth day) where no day follows; animals may have died later. Schedule codes are those of the source, taken here to give the interval after Q, in days (D) or hours (H), and the number of doses after X. Some doses were run more than once; their values stand side by side, smallest first.

Tested on: CD2F1 mice, L1210 leukemia ip, survival T/C
Test: NCI In Vivo Anticancer Drug Screen. Data for tumor model L1210 Leukemia (intraperitoneal) in CD2F1 (CDF1) mice
Details: T/C endpoint: mean survival time, schedule: Q01DX009 (ip), vehicle: Klucel (hydroxypropylcellulose) (HPC), higher T/C = longer survival
Procedure, shortened: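 Transplantable tumor in mice; compound-treated vs vehicle-treated groups. Read-out = treated/control ratio of the measured endpoint.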

For `O=C1C=C2C(=CCOC2O)O1` (stereo not drawn), the survivor count (dose: 0.25 mg/kg/injection) was 6 of 6, the survivor count (dose: 8.0 mg/kg/injection) was 0 of 6 and 1 of 6 and the survivor count (dose: 12.0 mg/kg/injection) was 0 of 6.
